{
  "sequences": {"note": "Protein sequences, listed by entry. Tags and fused reporters are not part of them.", "UniProt Q2TBA3": "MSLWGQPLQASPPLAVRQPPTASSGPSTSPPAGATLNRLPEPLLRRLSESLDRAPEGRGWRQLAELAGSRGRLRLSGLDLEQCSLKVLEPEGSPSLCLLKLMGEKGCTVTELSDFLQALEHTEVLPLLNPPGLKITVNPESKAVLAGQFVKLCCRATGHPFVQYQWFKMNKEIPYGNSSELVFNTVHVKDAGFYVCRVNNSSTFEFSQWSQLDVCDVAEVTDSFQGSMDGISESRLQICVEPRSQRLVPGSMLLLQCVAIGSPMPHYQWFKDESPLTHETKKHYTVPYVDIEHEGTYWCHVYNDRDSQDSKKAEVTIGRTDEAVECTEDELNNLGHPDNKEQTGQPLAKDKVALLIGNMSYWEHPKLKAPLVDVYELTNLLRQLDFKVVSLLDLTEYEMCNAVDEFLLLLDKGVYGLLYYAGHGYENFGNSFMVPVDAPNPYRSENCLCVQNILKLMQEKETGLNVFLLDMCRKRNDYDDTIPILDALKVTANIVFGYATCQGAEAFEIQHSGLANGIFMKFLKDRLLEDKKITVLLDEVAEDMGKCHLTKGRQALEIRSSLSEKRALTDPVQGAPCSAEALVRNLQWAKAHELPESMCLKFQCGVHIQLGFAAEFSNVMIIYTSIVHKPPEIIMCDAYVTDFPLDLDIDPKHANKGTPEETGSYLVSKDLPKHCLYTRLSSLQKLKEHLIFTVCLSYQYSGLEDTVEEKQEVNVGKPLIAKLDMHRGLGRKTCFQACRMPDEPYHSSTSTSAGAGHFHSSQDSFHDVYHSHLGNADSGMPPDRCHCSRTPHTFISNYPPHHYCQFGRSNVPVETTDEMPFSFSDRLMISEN"},
  "source": "paper PMC4256681",
  "molecules": {"B1": {"name": "Bcl-10 (protein, UniProt Q9Z0H7 1-233)", "chain": "MEAPAPSLTEEDLTEVKKDALENLRVYLCEKIIAERHFDHLRAKKILSREDTEEISCRTSSRKRAGKLLDYLQENPRGLDTLVESIRREKTQSFLIQKITDEVLKLRNIKLEHLKGLKCSSCEPFAAGATNNLSRCNSDESNLSEKQRASTVMYHPEGESSTAPFFSMASSLNLPVLEVGRTENSSFSSATLPRPGDPGAPPLPPDLRLEEGGSCGNSSEMFLPLRSRALSRQ"}, "B2": {"name": "caspase-8 (enzyme, UniProt O89110 1-480)", "chain": "MDFQSCLYAIAEELGSEDLAALKFLCLDYIPHKKQETIEDAQKLFLRLREKGMLEEGNLSFLKELLFHISRWDLLVNFLDCNREEMVRELRDPDNAQISPYRVMLFKLSEEVSELELRSFKFLLNNEIPKCKLEDDLSLLEIFVEMEKRTMLAENNLETLKSICDQVNKSLLGKIEDYERSSTERRMSLEGREELPPSVLDEMSLKMAELCDSPREQDSESRTSDKVYQMKNKPRGYCLIINNHDFSKAREDITQLRKMKDRKGTDCDKEALSKTFKELHFEIVSYDDCTANEIHEILEGYQSADHKNKDCFICCILSHGDKGVVYGTDGKEASIYDLTSYFTGSKCPSLSGKPKIFFIQACQGSNFQKGVPDEAGFEQQNHTLEVDSSSHKNYIPDEADFLLGMATVKNCVSYRDPVNGTWYIQSLCQSLRERCPQGDDILSILTGVNYDVSNKDDRRNKGKQMPQPTFTLRKKLFFPP"}, "B3": {"name": "caspase-8, O89110 1-480 (enzyme)", "chain": "B2 chain"}, "B4": {"name": "ASC, Q9EPB4 1-193 (protein)", "chain": "MGRARDAILDALENLSGDELKKFKMKLLTVQLREGYGRIPRGALLQMDAIDLTDKLVSYYLESYGLELTMTVLRDMGLQELAEQLQTTKEESGAVAAAASVPAQSTARTGHFVDQHRQALIARVTEVDGVLDALHGSVLTEGQYQAVRAETTSQDKMRKLFSFVPSWNLTCKDSLLQALKEIHPYLVMDLEQS"}},
  "experiment_in_all_cases": "co-IP; endogenous proteins from whole-cell lysates of murine BMMs (WT, Tec-/-, Dectin-1-/-), left unstimulated or stimulated with C. albicans for 60 min; lysis in NP-40-containing buffer; precipitated with antibodies against CARD9, MALT1, ASC or caspase-8 on Dynabeads Protein G; immunoblot",
  "key": {"[1]": {"biological_target": "T1, ASC (mouse (endogenous in BMMs)) (UniProt Q9EPB4)", "T1 sequence": "B4 chain"}, "[2]": {"biological_target": "T2, CARD9 (mouse (endogenous in BMMs)) (UniProt A2AIV8)", "T2 sequence": "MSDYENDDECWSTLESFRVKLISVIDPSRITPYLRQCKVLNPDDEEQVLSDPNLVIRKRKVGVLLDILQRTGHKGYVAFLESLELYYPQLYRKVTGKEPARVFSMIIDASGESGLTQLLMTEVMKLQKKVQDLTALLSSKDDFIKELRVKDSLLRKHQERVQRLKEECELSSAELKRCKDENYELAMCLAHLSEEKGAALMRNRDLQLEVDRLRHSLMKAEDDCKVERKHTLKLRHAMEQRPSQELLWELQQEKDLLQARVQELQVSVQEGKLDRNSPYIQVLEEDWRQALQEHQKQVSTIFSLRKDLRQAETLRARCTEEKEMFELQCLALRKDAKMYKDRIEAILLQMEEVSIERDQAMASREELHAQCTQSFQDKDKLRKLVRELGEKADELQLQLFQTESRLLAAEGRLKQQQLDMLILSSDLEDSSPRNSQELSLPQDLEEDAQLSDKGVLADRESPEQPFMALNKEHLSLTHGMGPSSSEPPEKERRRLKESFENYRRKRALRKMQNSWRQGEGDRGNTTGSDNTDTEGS"}, "[3]": {"biological_target": "T3, caspase-8 (mouse (endogenous in BMMs)) (UniProt O89110)", "T3 sequence": "B2 chain"}, "[4]": {"biological_target": "MALT1 (mouse (endogenous in BMMs)) (UniProt Q2TBA3)"}, "[5]": {"biological_target": "T4, ASC (mouse (endogenous in BMMs)), Q9EPB4", "T4 chain": "B4 chain", "details": "remark: other sources report otherwise"}, "[6]": {"biological_target": "T5, caspase-8 (mouse (endogenous in BMMs)), O89110", "T5 chain": "B2 chain", "details": "remark: other sources report otherwise"}},
  "note": "No constants are given. Whether binding was seen depends on the method and setting. Binding seen in cells or lysates may run through a third protein. Some entries that bind do so weakly or less than the wild type.",
  "data": [
    {"molecule": "MALT1 (from UniProt Q2TBA3 1-832)", "values": [
      {"measurement": "binding", "setting": "[1]", "result": "binds"},
      {"measurement": "binding", "setting": "[2]", "result": "binds"},
      {"measurement": "binding", "setting": "[3]", "result": "binds"}
    ]},
    {"molecule": "B1", "values": [
      {"measurement": "binding", "setting": "[2]", "result": "binds"}
    ]},
    {"molecule": "B2", "values": [
      {"measurement": "binding", "setting": "[4]", "result": "binds"}
    ]},
    {"molecule": "B3", "values": [
      {"measurement": "binding", "setting": "[5]", "result": "binds"}
    ]},
    {"molecule": "B4", "values": [
      {"measurement": "binding", "setting": "[6]", "result": "binds"}
    ]}
  ]
}
